# Measurements: US20240084262A1, “METHODS FOR DIFFERENTIATION OF PANCREATIC EXOCRINE CELLS FROM HUMAN INDUCED PLURIPOTENT STEM CELLS” (CEDARS-SINAI MEDICAL CENTER, priority 2020, published 2024)
# For at least one compound, name, drawing or mass did not settle the structure.
# Legend:
# Type in all cases: cell-based, human
# [1] = system: CFTR; assay: Iodide efflux assay of iPan Ductal cells
# [2] = system: Forskolin induced cAMP signaling pathway; assay: Western blot of samples after Forskolin exposure; details: 2 rounds of 15-min FSK treatment, planar and OTP cultures
# [3] = system: CFTR; assay: Forskolin induced swelling assay of iPan Ductal organoids; details: Forskolin 10 μM for 2 hours, vs organoids not stimulated
compound,measurement,setting,value
"C=C[C@@]1(C)CC(=O)[C@]2(O)[C@@]3(C)[C@@H](O)CCC(C)(C)[C@@H]3[C@H](O)[C@H](OC(C)=O)[C@@]2(C)O1 [FSK, Forskolin]",iodide released into the media,"[1]; 10 μM Forskolin, planar and OTP iPan Ductal cultures, vs NaNO3 buffer only",increased levels of iodide released into the media
same,iodide released in the medium from the chip,"[1]; iPan Ductal on chips, FSK for 8 min, vs untreated control",increase in iodide released in the medium
same,CFTR protein,[2],increase in CFTR
same,p-CREB and p-ATF1 protein,[2],concomitant increases in p-CREB and p-ATF1
same,fluid secretion and swelling of organoids (ratio of lumen volume to organoid volume),[3],significant increase in fluid secretion and swelling
